Results reported in PubChem BioAssay AID1671190 (National Center for Advancing Translational Sciences (NCATS), 2021).
Among all 580,000 compounds or so, about 6,100 (1.1%) were called active. This list was built around the results that the source calls inconclusive (neither active nor inactive); the mix of calls is not that of the screen. Calls come from the whole dose curve; as a rule, active = well fitted inhibition curve with a large enough effect; inconclusive = small, poorly fitted or top-dose-only effect, or another doubt; inactive = no such curve, though single readings can be large or run the other way. A potency beside an inconclusive call is a rough fit, not a confirmed value.

Amino acid sequences for entries named in this document (tags omitted). A change or cut given only in a name is not applied to a line headed by its entry.
UniProt P18054: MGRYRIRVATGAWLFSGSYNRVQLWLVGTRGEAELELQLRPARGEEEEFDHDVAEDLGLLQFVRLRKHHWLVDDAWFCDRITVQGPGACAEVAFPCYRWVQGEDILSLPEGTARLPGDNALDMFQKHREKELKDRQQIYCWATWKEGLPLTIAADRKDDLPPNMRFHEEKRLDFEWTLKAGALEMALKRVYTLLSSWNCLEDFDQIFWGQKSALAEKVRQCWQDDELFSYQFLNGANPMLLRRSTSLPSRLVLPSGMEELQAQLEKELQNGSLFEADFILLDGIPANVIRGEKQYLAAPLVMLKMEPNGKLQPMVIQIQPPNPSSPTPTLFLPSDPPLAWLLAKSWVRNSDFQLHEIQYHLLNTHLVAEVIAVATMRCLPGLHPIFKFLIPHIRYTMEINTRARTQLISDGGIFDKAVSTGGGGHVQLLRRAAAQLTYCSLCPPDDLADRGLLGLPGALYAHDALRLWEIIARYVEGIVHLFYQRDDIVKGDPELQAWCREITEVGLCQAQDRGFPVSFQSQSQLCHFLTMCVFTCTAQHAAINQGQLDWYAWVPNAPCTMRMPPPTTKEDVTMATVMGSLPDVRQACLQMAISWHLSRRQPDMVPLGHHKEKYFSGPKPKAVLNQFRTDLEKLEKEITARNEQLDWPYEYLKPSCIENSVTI

The compounds below were run against Polyunsaturated fatty acid lipoxygenase ALOX12 (Homo sapiens) (UniProt P18054) (assay: Primary qHTS assay for inhibitors of human arachidonate 12S-lipoxygenase (ALOX12): Round 2). Settings: purified 12hLO, xylenol orange hydroperoxide absorbance; activity change, negative = inhibition: at 108 µM (top of the series) unless noted.
Summary of the method: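 Purified human 12hLO at 150 nM in 25 mM Hepes, 0.01% Triton X-100, pH 7.0, preincubated 15 min at room temperature with compound. Reaction started with 40 uM arachidonic acid, 30 min at room temperature. Hydroperoxide measured by Fe-xylenol orange, 573/405 nm absorbance ratio.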
% is set by controls: 0 for no effect and ±100 for the full control effect; potency is the fitted concentration of half-maximal effect.

With `O=C(O)C1CCCN(C(=O)NCc2ccccc2)C1` (centres undefined) as the compound, how does the “activity change, negative = inhibition” value read?
Its value is inactive: 4.36%.

`CCC(Oc1ccccc1)C(=O)Nc1ccc(S(=O)(=O)Nc2cc(C)on2)cc1` (centres undefined) was tested. Which Potency did it give?
The Potency was inconclusive: 5.62 µM [inhibitor, full curve, poor fit].

Which activity change, negative = inhibition does the source give for `Cc1cccc(CSc2ccc(-c3ccco3)nn2)c1` here?
Its activity change, negative = inhibition is inconclusive: -31.3% [inhibitor].

With `FC(F)(F)c1cccc(C2=NOC3(CCN(Cc4ccccc4)C3)C2)c1` (centres undefined) as the compound, how does the activity change, negative = inhibition read?
The activity change, negative = inhibition was inactive: 6.63% [at 6.33 µM].

How did the Potency turn out when `O=C(Nc1ccccc1C(F)(F)F)Nc1c(NC2CCCC2)c2ccccc2oc1=O` was run?
Its Potency is inconclusive: 100 µM [inhibitor, partial curve, poor fit].

Which “activity change, negative = inhibition” value does the source give for `CC(Oc1ccc(Br)cc1)c1nc(-c2cccnc2)no1` (centres undefined) here?
The value was inactive: 53.5%.

With `O=C(COC(=O)c1cn(-c2ccccc2)nc1-c1ccc(F)cc1)Nc1ncc(Cl)cc1Cl` as the compound, how does the Potency read?
The Potency was inconclusive: 44.7 µM [inhibitor, partial curve, poor fit].

For `O=C(COC(=O)c1cc[n+]([O-])cc1)Nc1ccc(F)c([N+](=O)[O-])c1`, which Potency is on record?
Its Potency is inconclusive: 5.62 µM [inhibitor, full curve].

With `CC(=O)NN1C(=O)/C(=C\c2ccc(O)cc2)SC1=S` as the compound, how does the Potency read?
The Potency was inconclusive: 79.4 µM [inhibitor, partial curve, poor fit].

`CCCCC(CC)CNC(=O)CCNC(=O)c1ccccc1` (centres undefined) was tested. Which “activity change, negative = inhibition” value did it give?
Its value is inactive: -12.6%.

For `COc1ccc(C(=O)C(OC(=O)CNC(=O)c2ccco2)c2ccccc2)cc1` (centres undefined), which Potency is on record?
Its Potency is inconclusive: 15.8 µM [inhibitor, partial curve, poor fit].

Which Potency does the source give for `CCOc1ccccc1NC(=O)Nc1cc(C)c2nc(NC(=O)c3ccccc3)sc2c1` here?
Its Potency is inconclusive: 0.708 µM [inhibitor, full curve, poor fit].

With `CN(Cc1ccc2ccccc2c1)C(=O)CN(C)c1ncnc2nc[nH]c12` as the compound, how does the “activity change, negative = inhibition” value read?
Its value is inactive: -2.96%.

`COc1cc2c(cc1OC)CN(CC(=O)Nc1ccc3c(c1)OCO3)CC2` was tested. Which Potency did it give?
Its Potency is inconclusive: 112 µM [inhibitor, single point].

With `S=c1[nH]nc(-c2ccco2)n1C1CCCCC1` as the compound, how does the Potency read?
The Potency was inconclusive: 50.1 µM [inhibitor, partial curve, poor fit].

Which “activity change, negative = inhibition” value does the source give for `CCOC(=O)C1=CNS(=O)(=O)NC1c1cccc(O)c1` (centres undefined) here?
The value was inactive: 9.83%.

For `COc1ccccc1C(=O)N1CCN(c2oc(-c3cccc(C)c3)nc2C#N)CC1`, which “activity change, negative = inhibition” value is on record?
The value was inactive: -54.3%.

`O=C(CCC(=O)NCc1ccccc1)NCc1ccccc1` was tested. Which Potency did it give?
The Potency was inconclusive: 39.8 µM [inhibitor, partial curve, poor fit].

Which “activity change, negative = inhibition” value does the source give for `CN(Cc1cccnc1)C(=O)CCC[C@@H]1[C@H]2CCCN3CCC[C@@H](CN1Cc1cccnc1)[C@@H]23` here?
The value was inactive: 45.1%.

For `O=C(COc1coc(CN2CCc3ccccc32)cc1=O)NCCc1ccccc1`, which Potency is on record?
The Potency was inconclusive: 44.7 µM [inhibitor, partial curve, poor fit].

How did the Potency turn out when `Cc1nc(-c2cc(C#N)c(=O)[nH]c2C)cs1` was run?
The Potency was inconclusive: 100 µM [inhibitor, partial curve, poor fit].

For `Cc1cc(C)c2oc(C(=O)N3CCOC34CCN(C)CC4)cc(=O)c2c1`, which Potency is on record?
Its Potency is inconclusive: 112 µM [inhibitor, single point].

For `O=C(COC(=O)Cc1ccc(F)cc1)NCc1ccc(Cl)cc1`, which “activity change, negative = inhibition” value is on record?
The value was inactive: -1.84%.

How did the “activity change, negative = inhibition” value turn out when `O=C(NCc1ccc(-c2ccc(F)cc2)o1)C1CC(=O)N(Cc2cccnc2)C1` (centres undefined) was run?
Its value is inactive: 4.58%.

For `CCNC(=S)Nc1sc2c(c1C#N)CCC(C)C2` (centres undefined), which Potency is on record?
The Potency was inconclusive: 44.7 µM [inhibitor, partial curve, poor fit].

`Cc1cc(=O)[nH]c(SCC(=O)Nc2c(C)n(C)n(-c3ccccc3)c2=O)c1C#N` was tested. Which Potency did it give?
The Potency was inconclusive: 89.1 µM [inhibitor, single point].

How did the “activity change, negative = inhibition” value turn out when `O=C(Cn1ncn2c(cc3ccccc32)c1=O)NCc1ccc(F)cc1` was run?
Its value is inactive: -11.9%.

Which Potency does the source give for `Cc1nc2cc(NC(=O)c3ccc(S(=O)(=O)N(C)c4ccccc4)cc3)ccc2o1` here?
Its Potency is inconclusive: 5.62 µM [inhibitor, full curve, poor fit].

With `Cc1ccc(C)c(N2N=C(C(=O)Nc3ccc(S(=O)(=O)N4CCCCC4)cc3)CCC2=O)c1` as the compound, how does the Potency read?
The Potency was inconclusive: 31.6 µM [inhibitor, partial curve].

How did the Potency turn out when `CN1CCN(c2ccnc(-c3cccc(NS(C)(=O)=O)c3)n2)CC1` was run?
Its Potency is inconclusive: 112 µM [inhibitor, partial curve, poor fit].

Which Potency does the source give for `CC(=C1C(=O)c2ccccc2C1=O)N1CCN(c2ccccn2)CC1` here?
The Potency was inconclusive: 44.7 µM [inhibitor, partial curve, poor fit].

How did the Potency turn out when `O=C(NC1CCCN(Cc2ccc(Cl)cc2)C1)c1c(F)cccc1F` (centres undefined) was run?
Its Potency is inconclusive: 50.1 µM [inhibitor, partial curve, poor fit].

How did the Potency turn out when `CC(=O)N1CC2(CCCN(Cc3cc4ccccc4[nH]3)C2)Cc2ccccc21` (centres undefined) was run?
The Potency was inconclusive: 39.8 µM [inhibitor, partial curve, poor fit].

For `CC(C)NS(=O)(=O)c1ccc(Cl)c(C(=O)NCc2ccc(-c3nc4ccccc4s3)o2)c1`, which Potency is on record?
The Potency was active: 15.8 µM.

For `COc1ccccc1-c1sc2cc3c(cc2c1C#Cc1ccccn1)OCO3`, which Potency is on record?
Its Potency is inconclusive: 3.55 µM [inhibitor, full curve, poor fit].

For `CC1=NN(c2ccc(C(F)(F)F)cn2)C(=O)C1`, which “activity change, negative = inhibition” value is on record?
Its value is inactive: 0.407%.

With `O=C(COc1ccccc1F)Nc1cc(S(=O)(=O)Nc2cccc(Cl)c2)ccc1O` as the compound, how does the Potency read?
Its Potency is inconclusive: 44.7 µM [inhibitor, partial curve, poor fit].

How did the “activity change, negative = inhibition” value turn out when `COc1cccc(CNC(=O)c2cc(Sc3cccc(Cl)c3)nc3ccccc23)c1` was run?
The value was inactive: -6.19%.

For `O=[N+]([O-])c1ccc(-c2csc(Nc3ccccc3)[n+]2Cc2ccccc2)cc1`, which Potency is on record?
The Potency was inconclusive: 4.47 µM [inhibitor, full curve].

`CCOC(=O)c1cnc2ccccc2c1N1CCC(O)CC1` was tested. Which “activity change, negative = inhibition” value did it give?
Its value is inactive: -9.45%.

For `N#C/C(=C\c1ccc(-c2ccc(Cl)c(Cl)c2)o1)c1ccccc1`, which “activity change, negative = inhibition” value is on record?
Its value is inactive: -5.62%.

With `COc1cccc(CN2C(=O)CN(C3CCCCC3)C(=O)C2c2ccc(F)cc2)c1` (centres undefined) as the compound, how does the “activity change, negative = inhibition” value read?
Its value is inactive: -2.97%.

With `O=C(Nc1ccc2c(c1)CCC2)c1ccc(F)c(S(=O)(=O)N2CCOCC2)c1` as the compound, how does the Potency read?
The Potency was inconclusive: 44.7 µM [inhibitor, partial curve, poor fit].

How did the “activity change, negative = inhibition” value turn out when `CCCCc1c(C)[nH]n(-c2nc(C)c(C(=O)Nc3ccc(C)cc3)s2)c1=O` was run?
Its value is inactive: 54.8%.

For `c1cc(NC2CC2)nc(-c2ccoc2)n1`, which Potency is on record?
The Potency was inconclusive: 6.31 µM [inhibitor, full curve, poor fit].

Which “activity change, negative = inhibition” value does the source give for `COCCCNC(=O)Cn1ccc2c(Cl)cccc21` here?
Its value is inactive: 5.04%.

`O=C1CCCC(=O)C1C(=O)C1CCN(S(=O)(=O)c2ccccc2)CC1` was tested. Which “activity change, negative = inhibition” value did it give?
Its value is inactive: -16.8%.

How did the Potency turn out when `O=C(CNc1cccc(Cl)c1)c1ccc(Br)cc1` was run?
The Potency was inconclusive: 100 µM [inhibitor, single point].

For `COc1cc(OC)cc(-c2nc3n(n2)C(c2ccccc2)C(C(N)=O)=C(C)N3)c1` (centres undefined), which “activity change, negative = inhibition” value is on record?
The value was inactive: -0.0302%.

How did the Potency turn out when `COc1ccccc1NC(=O)COc1ccc(-c2nn(C)c(=O)c3ccccc23)cc1` was run?
The Potency was “inactive”.

How did the Potency turn out when `CC(=O)N1c2ccc(S(=O)(=O)Nc3ccc(Cl)cc3C)cc2CC1C` (centres undefined) was run?
The Potency was inconclusive: 56.2 µM [inhibitor, partial curve, poor fit].

How did the Potency turn out when `Cn1cc([C@]2(O)C(=O)N(c3ccccc3)c3ccccc32)c2ccccc21` was run?
Its Potency is inconclusive: 112 µM [inhibitor, partial curve, poor fit].

With `Cc1ccc2oc(=O)n(Cc3ccccc3OC(C)C)c2c1` as the compound, how does the “activity change, negative = inhibition” value read?
Its value is inactive: 0.0067%.

With `CCCn1c(=O)c2c(nc3n2CCCN3Cc2ccccc2)n(C)c1=O` as the compound, how does the “activity change, negative = inhibition” value read?
The value was inactive: -16.3%.

`Cc1nn(CC(=O)NCCc2cccs2)c(=O)c2nn(-c3ccccc3)c(C)c12` was tested. Which “activity change, negative = inhibition” value did it give?
Its value is inactive: -9.53%.

With `Cc1cc(NS(=O)(=O)c2ccc(NC(=O)/C=C/c3ccccc3Cl)cc2)no1` as the compound, how does the Potency read?
The Potency was inconclusive: 39.8 µM [inhibitor, partial curve, poor fit].

With `Cc1ccc(C(=O)Nc2oc3ccccc3c(=O)c2-c2ccccc2)cc1` as the compound, how does the Potency read?
The Potency was inconclusive: 63.1 µM [inhibitor, partial curve, poor fit].

With `COc1ccc(-n2c(=O)c(CCc3ccccc3)nc3cnc(N4CCN(C)CC4)nc32)cc1` as the compound, how does the Potency read?
Its Potency is active: 12.6 µM.

With `COc1ccc(OCc2cc(C(=O)NCCN3CCCc4ccccc43)no2)c(Cl)c1` as the compound, how does the Potency read?
The Potency was active: 15.8 µM.

With `Fc1ccc(CN2CCNc3cc(Nc4ccccc4)ncc3C2)cc1F` as the compound, how does the Potency read?
Its Potency is inconclusive: 63.1 µM [inhibitor, full curve].

With `Cc1ccc(CCNC(=O)C2CC(c3cc(C(F)(F)F)cc(C(F)(F)F)c3)=NO2)cc1` (centres undefined) as the compound, how does the activity change, negative = inhibition read?
The activity change, negative = inhibition was inconclusive: -30.8% [inhibitor].

For `COCC1CN(C)CC12CCN(Cc1ccc(OC)c(OC)c1Cl)CC2` (centres undefined), which “activity change, negative = inhibition” value is on record?
The value was inactive: 92.6%.

For `CCCCS(=O)(=O)c1oc(-c2ccc(F)cc2)nc1S(=O)(=O)c1ccc(C)cc1`, which “activity change, negative = inhibition” value is on record?
Its value is inactive: 3.13%.

How did the Potency turn out when `Cc1oc(-c2cccs2)nc1CC(=O)N1CCC(C(=O)NCc2ccccc2)CC1` was run?
The Potency was inconclusive: 7.94 µM [inhibitor, full curve, poor fit].

`COCCCn1c(C(=O)Nc2ccc3c(c2)OCO3)cc2c(=O)n3ccccc3nc21` was tested. Which “activity change, negative = inhibition” value did it give?
Its value is inactive: -26.4%.

How did the Potency turn out when `CC(C)Cc1nc2cc(NS(=O)(=O)N(C)C)cc(C(=O)N3CCc4ccccc4C3)c2n1C` was run?
The Potency was inconclusive: 100 µM [inhibitor, single point].

For `O=S(=O)(Nc1ccccc1O)c1ccc(-c2ccccc2)cc1`, which Potency is on record?
Its Potency is inconclusive: 44.7 µM [inhibitor, partial curve, poor fit].

With `Cc1ccc(S(=O)(=O)NC(=O)C2(C)CCN2C(=O)c2ccc(C(F)(F)F)nc2C)cc1` (centres undefined) as the compound, how does the Potency read?
Its Potency is inconclusive: 89.1 µM [inhibitor, single point].

With `Cc1ccn2c(Nc3ccc4c(c3)OCCO4)c(-c3ccsc3)nc2c1` as the compound, how does the Potency read?
The Potency was inconclusive: 7.94 µM [inhibitor, partial curve, poor fit].
